# From the supplement of paper PMC8728848
# Some of the results follow.
# B1: pilr alpha (protein)
# chain: MLYGVTQPKHLSASMGGSVEIPFSFYYPWELATAPDVRISWRRGHFHRQSFYSTRPPSIHKDYVNRLFLNWTEGQKSGFLRISNLQKQDQSVYFCRVELDTRSSGRQQWQSIEGTKLSIT
# What was measured:
# Assay in all cases: glycan array binding signal (z-score within array); higher = stronger binding
# Details in all cases: glycan notation: IUPAC condensed, linker removed
# [1] = target: Gal(b1-2)Gal
# How it was run: (§1)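 Glycan array binding is given as a within-array Z-score, which can be read as non-binding when negative. The arrays, 3228 of them, came from the Consortium for Functional Glycomics database and were retained only where the protein sequence was available. Z-scores were averaged across arrays of the same protein sequence at different concentrations or buffers and across linkers.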
# [2] = target: Gal(b1-3)Gal
# How it was run: as §1
# [3] = target: Gal(b1-3)Gal(b1-4)GlcNAc
# How it was run: as §1
# [4] = target: Gal(b1-3)GalNAc
# How it was run: as §1
# [5] = target: Gal(b1-3)GalNAc(a1-3)[Fuc(a1-2)]Gal(b1-4)Glc
# How it was run: as §1
# [6] = target: Gal(b1-3)GalNAc(a1-3)[Fuc(a1-2)]Gal(b1-4)GlcNAc
# How it was run: as §1
# [7] = target: Gal(b1-3)GalNAc(b1-3)Gal
# How it was run: as §1
# [8] = target: Gal(b1-3)GalNAc(b1-3)Gal(a1-4)Gal(b1-4)Glc
# How it was run: as §1
# [9] = target: Gal(b1-3)GalNAc(b1-4)Gal(b1-4)Glc
# How it was run: as §1
# [10] = target: Gal(b1-3)GalNAc(b1-4)[Neu5Ac(a2-3)]Gal(b1-4)Glc
# How it was run: as §1
# [11] = target: Gal(b1-3)GlcNAc
# How it was run: as §1
# [12] = target: Gal(b1-3)GlcNAc(a1-3)Gal(b1-4)GlcNAc
# How it was run: as §1
# [13] = target: Gal(b1-3)GlcNAc(a1-6)Gal(b1-4)GlcNAc
# How it was run: as §1
# [14] = target: Gal(b1-3)GlcNAc(b1-2)Man
# How it was run: as §1
# [15] = target: Gal(b1-3)GlcNAc(b1-2)Man(a1-3)[Gal(b1-3)GlcNAc(b1-2)Man(a1-6)]Man(b1-4)GlcNAc(b1-4)GlcNAc
# How it was run: as §1
# [16] = target: Gal(b1-3)GlcNAc(b1-2)Man(a1-3)[Gal(b1-3)GlcNAc(b1-2)Man(a1-6)]Man(b1-4)GlcNAc(b1-4)[Fuc(a1-6)]GlcNAc
# How it was run: as §1
# [17] = target: Gal(b1-3)GlcNAc(b1-2)Man(a1-3)[GlcNAc(b1-4)][Gal(b1-3)GlcNAc(b1-2)Man(a1-6)]Man(b1-4)GlcNAc(b1-4)GlcNAc
# How it was run: as §1
# [18] = target: Gal(b1-3)GlcNAc(b1-2)[Gal(b1-3)GlcNAc(b1-6)]Man(a1-6)[Gal(b1-3)GlcNAc(b1-2)Man(a1-3)]Man(b1-4)GlcNAc(b1-4)GlcNAc
# How it was run: as §1
# [19] = target: Gal(b1-3)GlcNAc(b1-3)Gal(b1-3)GlcNAc
# How it was run: as §1
# [20] = target: Gal(b1-3)GlcNAc(b1-3)Gal(b1-4)Glc
# How it was run: as §1
# [21] = target: Gal(b1-3)GlcNAc(b1-3)Gal(b1-4)GlcNAc
# How it was run: as §1
# [22] = target: Gal(b1-3)GlcNAc(b1-3)Gal(b1-4)GlcNAc(b1-2)Man(a1-3)[Gal(b1-3)GlcNAc(b1-3)Gal(b1-4)GlcNAc(b1-2)Man(a1-6)]Man(b1-4)GlcNAc(b1-4)GlcNAc
# How it was run: as §1
# [23] = target: Gal(b1-3)GlcNAc(b1-3)Gal(b1-4)GlcNAc(b1-2)[Gal(b1-3)GlcNAc(b1-3)Gal(b1-4)GlcNAc(b1-6)]Man(a1-6)[Gal(b1-3)GlcNAc(b1-3)Gal(b1-4)GlcNAc(b1-2)Man(a1-3)]Man(b1-4)GlcNAc(b1-4)[Fuc(a1-6)]GlcNAc
# How it was run: as §1
# [24] = target: Gal(b1-3)GlcNAc(b1-3)Gal(b1-4)GlcNAc(b1-3)Gal(b1-4)GlcNAc(b1-2)[Gal(b1-3)GlcNAc(b1-3)Gal(b1-4)GlcNAc(b1-3)Gal(b1-4)GlcNAc(b1-6)]Man(a1-6)[Gal(b1-3)GlcNAc(b1-3)Gal(b1-4)GlcNAc(b1-3)Gal(b1-4)GlcNAc(b1-2)Man(a1-3)]Man(b1-4)GlcNAc(b1-4)[Fuc(a1-6)]GlcNAc
# How it was run: as §1
# [25] = target: Gal(b1-3)GlcNAc(b1-3)Gal(b1-4)GlcNAc(b1-6)[Gal(b1-3)GlcNAc(b1-3)]Gal(b1-4)Glc
# How it was run: as §1
# [26] = target: Gal(b1-3)GlcNAc(b1-3)Gal(b1-4)[Fuc(a1-3)]GlcNAc
# How it was run: as §1
# [27] = target: Gal(b1-3)GlcNAc(b1-3)Gal(b1-4)[Fuc(a1-3)]GlcNAc(b1-6)[Gal(b1-3)GlcNAc(b1-3)]Gal(b1-4)Glc
# How it was run: as §1
# [28] = target: Gal(b1-3)GlcNAc(b1-3)GalNAc
# How it was run: as §1
# [29] = target: Gal(b1-3)GlcNAc(b1-6)Gal(b1-4)GlcNAc
# How it was run: as §1
# [30] = target: Gal(b1-3)GlcNAc(b1-6)GalNAc
# How it was run: as §1
# [31] = target: Gal(b1-3)GlcNAc(b1-6)[Gal(b1-3)]GalNAc
# How it was run: as §1
# [32] = target: Gal(b1-3)GlcNAc6S
# How it was run: as §1
# [33] = target: Gal(b1-3)[Fuc(a1-4)]GlcNAc
# How it was run: as §1
# [34] = target: Gal(b1-3)[Fuc(a1-4)]GlcNAc(b1-2)Man
# How it was run: as §1
# [35] = target: Gal(b1-3)[Fuc(a1-4)]GlcNAc(b1-2)Man(a1-3)[Gal(b1-3)[Fuc(a1-4)]GlcNAc(b1-2)Man(a1-6)]Man(b1-4)GlcNAc(b1-4)[Fuc(a1-6)]GlcNAc
# How it was run: as §1
# [36] = target: Gal(b1-3)[Fuc(a1-4)]GlcNAc(b1-3)Gal(b1-3)[Fuc(a1-4)]GlcNAc
# How it was run: as §1
# [37] = target: Gal(b1-3)[Fuc(a1-4)]GlcNAc(b1-3)Gal(b1-4)[Fuc(a1-3)]GlcNAc
# How it was run: as §1
# [38] = target: Gal(b1-3)[Fuc(a1-4)]GlcNAc(b1-6)GalNAc
# How it was run: as §1
# [39] = target: Gal(b1-3)[GlcNAc(b1-6)]GalNAc
# How it was run: as §1
# [40] = target: Gal(b1-3)[Neu5Ac(a2-6)]GalNAc
# How it was run: as §1
# [41] = target: Gal(b1-3)[Neu5Ac(a2-6)]GlcNAc(b1-4)Gal(b1-4)Glc
# How it was run: as §1
# [42] = target: Gal(b1-3)[Neu5Ac(b2-6)]GalNAc
# How it was run: as §1
# [43] = target: Gal(b1-4)Gal
# How it was run: as §1
# [44] = target: Gal(b1-4)GalNAc(a1-3)[Fuc(a1-2)]Gal(b1-4)GlcNAc
# How it was run: as §1
# [45] = target: Gal(b1-4)GalNAc(b1-3)[Fuc(a1-2)]Gal(b1-4)GlcNAc
# How it was run: as §1
binder,measurement,setting,value
B1,glycan array binding signal (z-score),[1],-0.398
same,glycan array binding signal (z-score),[2],-0.475
same,glycan array binding signal (z-score),[3],0.688
same,glycan array binding signal (z-score),[4],-0.302
same,glycan array binding signal (z-score),[5],0.387
same,glycan array binding signal (z-score),[6],0.103
same,glycan array binding signal (z-score),[7],-0.182
same,glycan array binding signal (z-score),[8],-0.094
same,glycan array binding signal (z-score),[9],2.46
same,glycan array binding signal (z-score),[10],0.1
same,glycan array binding signal (z-score),[11],-0.571
same,glycan array binding signal (z-score),[12],-0.031
same,glycan array binding signal (z-score),[13],0.177
same,glycan array binding signal (z-score),[14],-0.255
same,glycan array binding signal (z-score),[15],0.674
same,glycan array binding signal (z-score),[16],-0.587
same,glycan array binding signal (z-score),[17],0.778
same,glycan array binding signal (z-score),[18],-0.542
same,glycan array binding signal (z-score),[19],-0.764
same,glycan array binding signal (z-score),[20],-0.354
same,glycan array binding signal (z-score),[21],-0.556
same,glycan array binding signal (z-score),[22],0.14
same,glycan array binding signal (z-score),[23],0.467
same,glycan array binding signal (z-score),[24],0.296
same,glycan array binding signal (z-score),[25],-0.848
same,glycan array binding signal (z-score),[26],-0.24
same,glycan array binding signal (z-score),[27],0.008
same,glycan array binding signal (z-score),[28],-0.013
same,glycan array binding signal (z-score),[29],-0.459
same,glycan array binding signal (z-score),[30],0.108
same,glycan array binding signal (z-score),[31],0.219
same,glycan array binding signal (z-score),[32],-0.425
same,glycan array binding signal (z-score),[33],-0.472
same,glycan array binding signal (z-score),[34],0.268
same,glycan array binding signal (z-score),[35],0.007
same,glycan array binding signal (z-score),[36],-0.709
same,glycan array binding signal (z-score),[37],-0.686
same,glycan array binding signal (z-score),[38],-0.479
same,glycan array binding signal (z-score),[39],0.136
same,glycan array binding signal (z-score),[40],-0.253
same,glycan array binding signal (z-score),[41],-0.371
same,glycan array binding signal (z-score),[42],0.12
same,glycan array binding signal (z-score),[43],0.003
same,glycan array binding signal (z-score),[44],-0.5
same,glycan array binding signal (z-score),[45],-0.343
